Test results from patent US12691069B2 (KORANEX CAPITAL, priority 2022, dated 2026).

Test: peptide synthesis
Settings: whole synthesis, RP-HPLC

Substance: PEPTIDE1{[Mdp].G.G.F.L.R.R.I.R.P.K.[am]}$$$$V2.0
- final HPLC purity: ≥98%

Strings that start with PEPTIDE1 are HELM notation: dots part the residues, brackets hold end groups and non-standard residues.
